US5731155A, “Compositions for inhibition of intracellular transcription factors and methods therefor” (Washington University, priority 1996, dated 1998)
Part of at least one peptide drawing is inferred or uncertain, most often the ends. Where a SMILES comes first, the peptide text is derived from it. [ ]: non-standard residue; d: D form. The star is where a group is joined. Biotin = O=C1N[C@H]2[C@H](CS[C@H]2CCCCC(=O)*)N1; pY = N[C@@H](Cc1ccc(OP(=O)(O)O)cc1)C(=O)O; Ahx = NCCCCCC(=O)O

Legend:
p91 [1] = molecular target: T1, p91 (Homo sapiens, UniProt P42224); assay: Electrophoretic mobility shift assay (EMSA) of IFNγ-induced p91 activation in Colo-205 homogenates; type: biochemical; conditions: for effect on p91 activation (formation of activated p91-labeled probe complex): peptide 83 μM final, preincubated with Colo-205 homogenate before human IFNγ
T1 construct: endogenous in cells; host or cells: Colo-205 (human adenocarcinoma) cell homogenates
T1 sequence (P42224 1-750): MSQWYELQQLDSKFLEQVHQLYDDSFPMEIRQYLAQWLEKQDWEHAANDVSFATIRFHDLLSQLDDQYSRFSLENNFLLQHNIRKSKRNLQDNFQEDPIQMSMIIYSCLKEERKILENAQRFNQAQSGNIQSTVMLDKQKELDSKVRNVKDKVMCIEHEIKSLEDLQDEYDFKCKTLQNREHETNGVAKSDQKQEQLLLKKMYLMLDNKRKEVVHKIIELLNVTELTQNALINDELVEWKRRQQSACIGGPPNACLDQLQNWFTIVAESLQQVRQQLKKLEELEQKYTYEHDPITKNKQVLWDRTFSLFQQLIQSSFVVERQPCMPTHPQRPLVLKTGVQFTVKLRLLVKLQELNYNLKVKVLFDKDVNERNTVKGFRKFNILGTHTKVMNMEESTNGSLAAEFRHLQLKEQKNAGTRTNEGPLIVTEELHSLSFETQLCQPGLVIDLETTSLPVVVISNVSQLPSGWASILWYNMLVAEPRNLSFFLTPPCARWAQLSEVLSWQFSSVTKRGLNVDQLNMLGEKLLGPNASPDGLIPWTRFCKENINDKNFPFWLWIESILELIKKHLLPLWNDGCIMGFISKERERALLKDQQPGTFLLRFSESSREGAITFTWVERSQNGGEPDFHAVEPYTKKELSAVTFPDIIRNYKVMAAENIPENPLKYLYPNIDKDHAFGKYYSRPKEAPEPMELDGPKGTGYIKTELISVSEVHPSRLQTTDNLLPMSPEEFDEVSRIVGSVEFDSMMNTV
Excerpt: For this example, the finding that the latent IFNγ inducible transcription factor, p91, can be activated by IFNγ in a cell free system (Igarashi et al., Mol Cell Biol 13:1634-1640, 1993 which is incorporated by reference) was utilized to determine the biologic significance of the IFNγ induced tyrosine phosphorylation of the Y440 residue in the IFNγ receptor molecule. Colo-205 homogenates were stimulated with 1900 IRU of human IFNγ and p91 activation monitored using an electrophoretic mobility gel shift assay (EMSA) that employed a ^32 P-labeled 18 bp probe derived from the FcγR I gene promoter (Pearse et al., Proc Natl Acad Sci 90:4314-4318, 1993 which is incorporated by reference). The EMSAs were carried out essentially as described (Igarashi et al., supra). The oligonucleotide probe was based on the 3' 18 base pairs of the Gamma Response Region (GRR) of the FcγRI gene (Pearse et al., Proc Natl Acad Sci 90:4314-4318, 1993 which is incorporated by reference). Top strand: 5'-ATGTATTTCCCAGAAA-3' (SEQ ID NO: 12); Bottom strand: 5'-CTTTTCTGGGAAATA-3' (SEQ ID NO:13). The double stranded oligonucleotide was labeled by filling in the overhanging ends with dATP α ^32 P using the klenow large fragment (Boehringer Mannheim, Indianapolis, Ind.). Assays were performed using 5 μg of extract and 25,000 cpm (approximately 1 ng) of the double stranded ^32 P labeled GRR probe incubated in 10 mM Tris-HCl (pH7.5), 100 mM KCl, 5 mM MgCl2, 1 mM DTT, 10% glycerol and 4 μg poly(dIdC)(dIdC) (Pharmacia) for 20 minutes at room temperature. The reactions were then electrophoresed through a 6% polyacrylamide gel in 0.25×TBE for 3 hours at 150 V. Gels were dried and subsequently analyzed by autoradiography. Supershifts were performed using antisera to the C-terminus of human p91 (Schindler et al., Proc Natl Acad Sci 89:7836-7839, 1992 which is incorporated by reference) at a dilution of 1:100. Specificity of interactions were determined by the addition of 350 ng of the unlabeled GRR probe or 560 ng of the unlabeled 41 base pair double stranded oligonucleotide containing the ISRE of ISG15 (5'-GATCCATGCCTCGGGA-[…]-3' SEQ ID NO: 14) (David and Larner, Science 257:813-815, 1992 which is incorporated by reference).
Colo-205 homogenates were prepared essentially as previously described (Igarashi et al., supra). Briefly, 2×10^8 Colo-205 cells were washed in PBS and resuspended in 1 ml of reaction buffer containing 100 mM Hepes (pH 7.4), 20 mM MgCl2, 100 mM NaCl, 200 μM ascorbic acid, 4 mM ATP, 2 mM EGTA, 1 mM PMSF, 10 μg/ml leupeptin and aprotinin. Cells were disrupted in a steel dounce until no intact cells remained. Colo-205 homogenates were diluted to 6.5 mg/ml in reaction buffer and 50 μl aliquots were incubated at 4° C. for 1 hour either in the absence or presence of 5 μl of specific peptides diluted in water. After the preincubation period with peptide, homogenates were incubated for 5 minutes at 37° C. with 1900 IRU of rHuIFNγ added in 5 μl of reaction buffer. The reactions were stopped by the addition of 0.45 ml of stop buffer consisting of 20 mM Hepes (pH 7.4), 1 mM MgCl2, 10 mM KCl, 20% glycerol, 500 μM DTT, 0.1% NP-40, 1 mM PMSF, 10 μg/ml leupeptin and aprotinin. Homogenates were vortexed for 5 seconds and nuclei pelleted by centrifugation at 16,000×g for 5 minutes. The supernatant was then assayed for activation of p91 by electrophoretic mobility shift assay (EMSA). […]

Listeria monocytogenes [2] = assay: Macrophage activation in Listeria monocytogenes infected mice (lysis of 111In-labeled P815 cells); type: in vivo; conditions: peptide i.p. 24 hours after infection, peritoneal cells harvested 24 hours later
Listeria monocytogenes [3] = assay: Resolution of Listeria monocytogenes infection in mice (bacterial counts); type: in vivo; conditions: peptide i.p. 24 hours after infection, counts at 4 and 6 days
p91 [4] = molecular target: T1, p91; assay: Coprecipitation of p91 with biotinylated peptides (streptavidin) from Colo-205 homogenates; type: binding; conditions: biotinylated peptide 2 μM, Colo-205 homogenates with or without IFNγ, anti-p91 western blot
STAT1 = molecular target: T2, STAT1 (Mus musculus, UniProt P42225); assay: Precipitation of STAT1 from BaMR homogenates with biotinylated peptides; type: binding
T2 construct: Cytosolic homogenates of BaMR cells were precipitated with the biotinylated 12 amino acid peptides; endogenous in cells; host or cells: BaMR (IL-10 receptor-transfected BaF3) homogenates
T2 sequence (P42225 1-749): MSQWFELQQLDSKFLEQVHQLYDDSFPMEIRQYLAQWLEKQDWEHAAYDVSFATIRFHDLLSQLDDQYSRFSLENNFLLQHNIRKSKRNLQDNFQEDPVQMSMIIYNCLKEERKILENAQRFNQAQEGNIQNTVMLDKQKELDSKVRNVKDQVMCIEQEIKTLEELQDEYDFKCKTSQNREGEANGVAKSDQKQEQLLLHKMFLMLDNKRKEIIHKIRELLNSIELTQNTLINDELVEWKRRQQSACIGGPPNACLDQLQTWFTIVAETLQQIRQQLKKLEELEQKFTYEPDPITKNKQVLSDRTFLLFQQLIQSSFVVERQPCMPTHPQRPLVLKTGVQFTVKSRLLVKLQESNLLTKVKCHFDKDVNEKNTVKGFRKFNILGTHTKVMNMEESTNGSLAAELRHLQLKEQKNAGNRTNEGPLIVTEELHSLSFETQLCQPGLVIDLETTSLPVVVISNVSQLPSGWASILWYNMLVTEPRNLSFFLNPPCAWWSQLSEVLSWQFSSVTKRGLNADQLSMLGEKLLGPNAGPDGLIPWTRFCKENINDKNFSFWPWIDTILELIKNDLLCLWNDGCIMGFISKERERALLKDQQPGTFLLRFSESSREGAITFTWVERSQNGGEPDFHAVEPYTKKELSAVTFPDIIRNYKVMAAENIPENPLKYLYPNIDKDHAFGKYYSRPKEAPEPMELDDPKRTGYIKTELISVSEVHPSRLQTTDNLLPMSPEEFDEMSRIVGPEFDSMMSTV

C[C@@H](O)[C@H](N)C(=O)N[C@@H](CO)C(=O)N[C@@H](Cc1ccccc1)C(=O)NCC(=O)N[C@@H](Cc1ccc(OP(=O)(O)O)cc1)C(=O)N[C@@H](CC(=O)O)C(=O)N[C@@H](CCCCN)C(=O)N1CCC[C@H]1C(=O)N[C@@H](Cc1c[nH]cn1)C(=O)O [SEQ ID NO:3, Thr-Ser-Phe-Gly-Xaa-Asp-Lys-Pro-His] (H-TSFG[pY]DKPH-OH)
effect on p91 activation (formation of activated p91-labeled probe complex) (p91 [1]): completely inhibited
inhibition of formation of activated p91-labeled probe complex (p91 [1]; phosphopeptide 0.1 μM): not inhibitory
inhibition of formation of activated p91-labeled probe complex (p91 [1]; phosphopeptide 0.7 μM): not inhibitory
inhibition of formation of activated p91-labeled probe complex (p91 [1]; phosphopeptide 15 μM): completely inhibited
specific tumor cell lysis by macrophages compared to untreated Listeria-infected mice (Listeria monocytogenes [2]): diminished specific tumor cell lysis
levels of microorganism in peritoneal cavity and spleen versus untreated animals (Listeria monocytogenes [3]): substantially greater levels

CC(C)C[C@H](NC(=O)[C@@H](NC(=O)[C@H](Cc1c[nH]cn1)NC(=O)[C@@H]1CCCN1C(=O)[C@H](CCCCN)NC(=O)[C@H](CC(=O)O)NC(=O)[C@H](Cc1ccc(OP(=O)(O)O)cc1)NC(=O)CNC(=O)[C@H](Cc1ccccc1)NC(=O)[C@H](CO)NC(=O)[C@@H](NC(=O)CCCCCNC(=O)CCCC[C@@H]1SC[C@@H]2NC(=O)N[C@@H]21)[C@@H](C)O)C(C)C)C(=O)N[C@H](C(=O)O)C(C)C [SEQ ID NO:4, Biotin-TSFGY-PO4 DKPHVLV] ({Biotin-Ahx}-TSFG[pY]DKPHVLV-OH)
coprecipitation of p91 with biotinylated peptide (p91 [4]): p91 is clearly evident in precipitates
precipitation of STAT1 (STAT1): positive control for precipitation of STAT1
levels of microorganism in peritoneal cavity and spleen versus untreated animals (Listeria monocytogenes [3]): substantially greater levels

CC[C@H](C)[C@H](NC(=O)[C@H](CC(C)C)NC(=O)[C@@H](N)CO)C(=O)NCC(=O)N[C@@H](Cc1ccc(OP(=O)(O)O)cc1)C(=O)N[C@@H](CCCNC(=N)N)C(=O)N1CCC[C@H]1C(=O)N[C@H](C(=O)N[C@@H](CCC(=O)O)C(=O)N[C@@H](CC(=O)O)C(=O)N[C@@H](CO)C(=O)N[C@@H](CCCCN)C(=O)O)[C@@H](C)O [SEQ ID NO:17, Ser-Leu-Ile-Gly-Xaa-Arg-Pro-Thr-Glu-Asp-Ser-Lys] (H-SLIG[pY]RPTEDSK-OH)
effect on p91 activation (formation of activated p91-labeled probe complex) (p91 [1]): no inhibition
coprecipitation of p91 with biotinylated peptide (p91 [4]): No interaction
